Source: PubChem BioAssay AID328 (DTP/NCI, 2004)
The list does not hold the whole screen: it is rich in T/C values a quarter to a half above the control, in often repeated tests (any T/C) and in doses without a T/C. Further doses and runs are listed elsewhere. T/C: endpoint of the treated group in % of that of the vehicle group. Some doses have a count of surviving animals in place of a T/C: the source files T/C as zero there, which appears to mark a toxic dose or a test without result, not a measured value. Some doses without a T/C left all or most animals alive at the check, yet need not have been tolerated: the source hardly ever lists a survival T/C far under the control, and the zero likely stands for such cases as well. Counts of survivors are from the toxicity check (mostly the fifth day) where no day follows; animals may have died later. Schedule codes are those of the source, taken here to give the interval after Q, in days (D) or hours (H), and the number of doses after X. Some molecules as drawn cover several salts, stereoisomers or complexes of the source; a dose is that of the sample tested. Where survival is the endpoint, the PubChem record calls one and a half times the control and up active, and a quarter to a half above the control has no call in these data; cut-offs in other NCI protocols can differ.

System: BDF1 mice, P388 leukemia ip, median survival T/C
Assay: NCI In Vivo Anticancer Drug Screen. Data for tumor model P388 Leukemia (intraperitoneal) in B6D2F1 (BDF1) mice
Conditions: T/C endpoint: median survival time, higher T/C = longer survival
Summary of the method: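 Each value expresses how treatment altered survival: treated-mouse outcome over vehicle-mouse outcome, both groups bearing the transplanted tumour.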

[1] = dose: 200.0 mg/kg/injection, schedule: Q01DX005 (ip), vehicle: saline with Tween-80
[2] = dose: 200.0 mg/kg/injection, schedule: Q01DX009 (ip), vehicle: saline with Tween-80
[3] = dose: 15.0 mg/kg/injection, schedule: Q01DX009 (ip), vehicle: saline with Tween-80
[4] = dose: 12.5 mg/kg/injection, schedule: Q01DX009 (ip), vehicle: saline

## C[C@@H]1CC2=CC(=O)CC[C@@H]2[C@H]2CC[C@@]3(C)[C@@H](CC[C@]3(C)O)[C@@H]21
dose: 200.0 mg/kg/injection, schedule: Q04DX003 (ip), vehicle: saline with Tween-80
  survivor count: 6 of 6
dose: 400.0 mg/kg/injection, schedule: Q01DX009 (ip), vehicle: saline with Tween-80
  survivor count: 4 of 6
dose: 400.0 mg/kg/injection, schedule: Q04DX003 (ip), vehicle: saline with Tween-80
  survivor count: 2 of 6

## CN(C(=S)SSC(=S)N(C)c1ccccc1)c1ccccc1
dose: 100.0 mg/kg/injection, schedule: Q01DX001 (ip), vehicle: Klucel (hydroxypropylcellulose) (HPC)
  survivor count: 6 of 6

## NCc1cc(=O)[nH]o1
dose: 10.0 mg/kg/injection, schedule: Q01DX005 (ip), vehicle: saline
  survivor count: 3 of 6

## O=C1CCCCC1N1CCCCC1 (configuration not stated)
[1]
  survivor count: 2 of 5

## O=C(CC(=O)C(F)(F)F)c1ccc(-c2ccccc2)cc1
[2]
  survivor count: 0 of 6

## CC1=NN(c2ccccc2)C(=O)C1=Nc1c(C)[nH]n(-c2ccccc2)c1=O
[3]
  survivor count: 6 of 7

## C=CC1CCCCC1C=C (configuration not stated)
[4]
  survivor count: 6 of 6

## COC1C(O)C(OC2CCC3(C)C(CCC4C3CCC3(C)C(C5=CC(=O)OC5)CCC43O)C2)OC(C)C1OC(C)=O (configuration not stated)
dose: 14.0 mg/kg/injection, schedule: Q01DX009 (ip), vehicle: saline with Tween-80
  T/C: 130 % of control

## CC(C)(C)OC(=O)N/N=C1\CC2CCC1C2 (configuration not stated)
dose: 80.0 mg/kg/injection, schedule: Q01DX009 (ip), vehicle: Klucel (hydroxypropylcellulose) (HPC)
  survivor count: 5 of 6
dose: 185.0 mg/kg/injection, schedule: Q04DX003 (ip), vehicle: Klucel (hydroxypropylcellulose) (HPC)
  survivor count: 4 of 6

## Cn1cnc([N+](=O)[O-])c1[Se]c1ncnc2c1ncn2C1OC(CO)C(O)C1O (configuration not stated)
dose: 50.0 mg/kg/injection, schedule: Q01DX009 (ip), vehicle: saline
  survivor count: 6 of 6
dose: 100.0 mg/kg/injection, schedule: Q04DX003 (ip), vehicle: saline
  survivor count: 5 of 6
dose: 400.0 mg/kg/injection, schedule: Q04DX003 (ip), vehicle: saline
  survivor count: 0 of 6

## COC1OCC(N=[N+]=[N-])C2OC12 (configuration not stated)
dose: 400.0 mg/kg/injection, schedule: Q01DX009 (ip), vehicle: water
  survivor count: 2 of 4

## CCCCOB(CI)OCCCC
[4]
  survivor count: 1 of 6
dose: 25.0 mg/kg/injection, schedule: Q01DX009 (ip), vehicle: saline
  survivor count: 0 of 6

## O=C(Nc1ccc(NC(=O)Nc2cccc(C3=NCCCN3)c2)cc1)Nc1ccc(C2=NCCCN2)cc1
[3]
  survivor count: 5 of 6

## Cc1nc2ccccc2c(=O)n1/N=C/c1ccco1
[2]
  survivor count: 0 of 6

## COc1ccc(-c2cc(=O)c3ccc4cc(OC)c(OC)cc4c3o2)cc1
dose: 25.0 mg/kg/injection, schedule: Q01DX009 (ip), vehicle: distilled water + Tween-80
  survivor count: 6 of 6

## O=C(/C=C/c1cccc(Br)c1)c1ccc(Cl)cc1
dose: 200.0 mg/kg/injection, schedule: Q01DX009 (ip), vehicle: other
  T/C: 130 % of control

## C/C=C/C=C/C(=O)NO
dose: 100.0 mg/kg/injection, schedule: Q01DX009 (ip), vehicle: Klucel (hydroxypropylcellulose) (HPC)
  survivor count: 6 of 6

## O=C1CCC(C(=O)N/N=C\C=N/NC(=O)C2CCC(=O)N2)N1 (configuration not stated)
dose: 40.0 mg/kg/injection, schedule: Q01DX009 (ip), vehicle: saline with Tween-80
  survivor count: 5 of 7
dose: 80.0 mg/kg/injection, schedule: Q01DX009 (ip), vehicle: saline with Tween-80
  survivor count: 7 of 7

## CN(C)CCCNC(=O)Nc1ccccc1
dose: 400.0 mg/kg/injection, schedule: Q04DX003 (ip), vehicle: Klucel (hydroxypropylcellulose) (HPC)
  survivor count: 0 of 6

## O=C(Nc1cccc2c(OC(=O)C(Cl)Cl)c(N=Nc3ccc(S(=O)(=O)Nc4nccs4)cc3)cc(N=Nc3ccc(S(=O)(=O)Nc4nccs4)cc3)c12)C(Cl)Cl (tested in a mixture with another compound)
dose: 12.5 mg/kg/injection, schedule: Q01DX009 (ip), vehicle: saline with Tween-80
  T/C: 148 % of control
dose: 25.0 mg/kg/injection, schedule: Q01DX009 (ip), vehicle: saline with Tween-80
  T/C: 129 % of control
dose: 50.0 mg/kg/injection, schedule: Q01DX009 (ip), vehicle: saline with Tween-80
  survivor count: 5 of 6
dose: 100.0 mg/kg/injection, schedule: Q01DX009 (ip), vehicle: saline with Tween-80
  survivor count: 1 of 6
[1]
  survivor count: 3 of 5
[2]
  T/C: 137 % of control
